Laboratory results: PubChem BioAssay AID1259415 (National Center for Advancing Translational Sciences (NCATS), 2018)
The campaign covered roughly 410,000 compounds. About 18,000 (4.4%) were called active. Inconclusive results, whose numbers are uncertain, are shown with a selection of clear calls. Rule as the data show it: active = activity change below about -60%; inconclusive = no clear call, values can overlap the other calls; inactive = above about -39%. More than one record can exist for a structure, and the calls need not agree.

Test: qHTS Assay for inhibitors of the human cytomegalovirus (HCMV)
Conditions: HFF cells, HCMV-luciferase reporter, 72 h; at 57.5 µM; active compounds read low
Outline: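 Human foreskin fibroblasts infected with luciferase-reporter HCMV at MOI 1 PFU/cell, compounds at two doses. Luciferase measured 72 h post infection; normalized to buffer-only basal and Salinomycin (10uM) controls.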
% is scaled to controls: 0 for no effect and ±100 for the full control effect.

SMILES	activity change, negative = inhibition
CC(=O)Nc1ccc(S(=O)(=O)N2CCN(C(=O)c3ncoc3-c3cccc(F)c3)CC2)cc1	inconclusive: -54.8%
COCCCNC(=O)C[C@@H]1C[C@@]2(C(=O)OC)CCCCC=C2N(CCc2ccc(OC)c(OC)c2)C1=O	inactive: 3.56%
CC(NC(=O)Cc1cccc(C(F)(F)F)c1)c1ccc(F)cc1 (stereo not given)	inconclusive: -53.6%
CCN1CCN(CCCNC(=O)Cn2c(-c3cccs3)cc3cc(F)ccc32)CC1	inconclusive: -44.1%
COCc1cccc(-c2csc(C(C)(O)c3cccc(F)c3)n2)c1 (stereo not given)	inconclusive: -42.8%
Cc1ccc(N=c2ssnc2Cl)cc1	inactive: -19.7%
O=C(c1cc(C2CC2)nn1-c1ccccc1)N1CCN(Cc2ccccc2F)CC1	inactive: -10.3%
Nc1nc(Nc2ccccc2)nc2c1ncn2[C@@H]1O[C@H](CO)[C@@H](O)[C@H]1O	inactive: -37.1%
C[C@H](CO)N1C[C@H](C)[C@H](CN(C)S(=O)(=O)c2cn(C)cn2)Oc2ccc(NC(=O)Nc3ccc(C(F)(F)F)cc3)cc2CC1=O	inconclusive: -57%
COc1cc(NC(=O)CS(=O)(=O)c2ccccc2)cc(OC)c1OC	inconclusive: -51.1%
CCOc1ccc(CCNC(=O)CS(=O)(=O)Cc2nc(-c3ccccc3F)oc2C)cc1	active: -65.5%
COc1ccc(-n2cnc3ccccc32)cc1	active: -73.9%
CC(C)(C)/C(O)=C/c1nc2ccccc2oc1=O	inconclusive: -54.9%
Cc1ccc(CCNC(=O)c2c[nH]c3ccc(S(=O)(=O)Nc4cccc(C(F)(F)F)c4)cc3c2=O)cc1	inconclusive: 0%
Oc1ccc(Br)cc1-c1nc2cnccn2c1NC1CCCC1	inconclusive: -58.9%
O=C(OCC(=O)N1CCOCC1)c1c(Cl)ccc(Cl)c1Cl	inconclusive: -42.5%
Cc1cc(Nc2ccc(C)c(F)c2)n2ncnc2n1	inactive: -7.38%
O=C(COC(=O)c1ccc(F)c(S(=O)(=O)N2CCOCC2)c1)NC1CC1	inconclusive: -40.8%
COc1ccc(C2C(=O)N(C3CCC(C)CC3)CC(=O)N2C2CCCC2)cc1OC (stereo not given)	inconclusive: -57.9%
CC(C)(C)NCC(O)COc1cccc2c1CC(O)C(O)C2 (stereo not given)	inconclusive: -51.2%
O=C(CSc1nnc(COc2ccccc2)o1)N1CCCC1	inconclusive: -42.4%
Cc1cc(C)c2c(c1)cc(C)c1nnc(SCC(=O)Nc3cc(C)on3)n12	inconclusive: -40.4%

A stretch taken from the entries so far, as a working copy:
SMILES	activity change, negative = inhibition
CC(C)(C)/C(O)=C/c1nc2ccccc2oc1=O	inconclusive: -54.9%
Cc1ccc(CCNC(=O)c2c[nH]c3ccc(S(=O)(=O)Nc4cccc(C(F)(F)F)c4)cc3c2=O)cc1	inconclusive: 0%
Oc1ccc(Br)cc1-c1nc2cnccn2c1NC1CCCC1	inconclusive: -58.9%

Next part:

SMILES	activity change, negative = inhibition
COC(=O)C(Cc1c[nH]c2ccccc12)NC(=O)c1cccs1 (stereo not given)	inactive: 61.6%
O=C(Nc1ccc2nc3n(c(=O)c2c1)CCCCC3)c1c(F)ccc([N+](=O)[O-])c1F	active: -100%
COC(=O)c1c(NC(=O)C2COc3ccccc3O2)sc2c1CCN(Cc1ccccc1)C2 (stereo not given)	inconclusive: -43.2%
Cn1cccc1/C=N/n1c(-c2ccco2)n[nH]c1=S	inconclusive: -47.5%
c1ccc(-n2nnnc2NC2CCCCCC2)cc1	inconclusive: -48.1%
COc1ccc2nc(NC(=O)c3cccs3)sc2c1	inactive: 18.1%
Cc1ccccc1-c1noc(-c2ccc(N3CCN(C)CC3)c([N+](=O)[O-])c2)n1	active: -75.4%
COc1ccc(S(=O)(=O)Nc2ccc(O)c3ccccc23)cc1	active: -104%
Oc1cc(-c2cccnc2)cc2cccnc12	active: -93.9%
O=[N+]([O-])c1ccc(Cl)c([N+](=O)[O-])c1	active: -73.9%
CCS(=O)(=O)c1ccccc1C(=O)Nc1ccc(-c2nc3ccccc3s2)cc1	inactive: 28.5%
COc1ccccc1CNC(=O)COC(=O)c1ccc(S(=O)(=O)N2CCCCC2)cc1	inconclusive: -52%
CC1Sc2ccc(C(=O)Nc3cc(S(C)(=O)=O)ccc3Cl)cc2NC1=O (stereo not given)	inconclusive: -42.1%
COC(=O)c1cc2sccc2n1CC(=O)N(C)c1ccccc1	inconclusive: -46.7%
Cc1ccccc1N1CCN(C2CCCN(C(=O)c3cn4cccc(C)c4n3)C2)CC1 (stereo not given)	inactive: -32%
Cc1ccc(NS(=O)(=O)c2cccc(C(=O)NCC(c3cccs3)N(C)C)c2)cc1 (stereo not given)	inconclusive: -41.1%
N#Cc1ccc(C23CC4(C2)[C@H](CN(Cc2ccc(C(F)(F)F)cc2)[C@@H]4c2ccccc2)C3c2ccc(C(F)(F)F)cc2)cc1 (stereo not given in full)	inconclusive: -42.3%
O=C(N=C1SC2CS(=O)(=O)CC2N1Cc1ccccc1)C1CC1 (stereo not given)	inconclusive: -41.3%
O=C(/C=C/c1ccc(Cl)cc1)NC(=S)Nc1ccc(NC(=O)c2ccco2)cc1	active: -69.7%
COc1ccc2c(c1)cc(C(=O)N/N=C/c1c(O)c(C(=O)O)cc3ccccc13)n2C	inconclusive: -46.7%
Cc1ccccc1-c1cc(C(=O)NCc2cccc(Br)c2)n(CC2CC(c3cccnc3)=NO2)n1 (stereo not given)	inactive: -18.4%
O=C(C[n+]1ccn(CCCNP2(=O)C=C(c3ccccc3)OC(c3ccccc3)=C2)c1)c1cccs1	inconclusive: -50.9%

SMILES	activity change, negative = inhibition
CCc1ccc(S(=O)(=O)N(C(=O)c2ccncc2)c2ccc(OC(=O)c3ccncc3)cc2)cc1	inconclusive: -58.3%
Cc1ccc(NC(=O)Cn2c(=O)c3cccn3c3ccccc32)c(Cl)c1	inconclusive: -41.1%
CC(C)N(C(=S)Nc1cccc(C(F)(F)F)c1)C(C)c1ccccn1 (stereo not given)	inactive: -24.8%
COc1ccc(-c2csc(NC(=O)Cc3ccccc3F)n2)cc1OC	inconclusive: -52.9%
O=C(Cn1c(SCC(=O)Nc2ccc(F)cc2)nc2ccccc21)NCc1ccccc1Cl	inconclusive: -59%
O=C(Cn1cc(C(F)(F)F)ccc1=O)N1CCN(S(=O)(=O)c2ccc(Cl)cc2)CC1	inactive: -5.75%
CCOC(=O)C1=CCN(S(=O)(=O)c2ccccc2C)C1c1ccc(Cl)cc1 (stereo not given)	inconclusive: -42.2%
N=c1c2c(-c3ccccc3)c(-c3ccccc3)oc2ncn1CCCN1CCOCC1	inactive: 12.1%
C[C@H](NC(=O)c1nc[nH]c1C(=O)N1CCNCC1)C(=O)OC(C)(C)C	active: -65.4%
CN(C)c1ccc(CC(=O)N2CCCC(c3cc(C(=O)Nc4ccc(F)c(Cl)c4)no3)C2)cc1 (stereo not given)	inconclusive: -52.3%
c1cc2c(cc1-c1[nH]ncc1CN1C[C@H]3CC[C@H]1C3)OCO2	inconclusive: -51.9%
COc1ccc(S(=O)(=O)N(Cc2nc(-c3ccc(Cl)cc3)no2)C2CCCCC2)cc1	inactive: -23.5%
Cc1ccc(NC(=O)CSc2nnc(CSc3nc(C)cc(C)n3)n2Cc2ccco2)c(C)c1	inactive: 57.9%
COc1ccccc1CNS(=O)(=O)CCNCc1ccco1	inactive: -6.66%
COc1ccc2c(c1OC)C(=O)OC2C/C(=N\NC(N)=O)c1ccccc1 (stereo not given)	active: -70%
CC1CCCN(S(=O)(=O)c2ccc(NC(=O)C3CC(=O)N(C(C)(C)C)C3)cc2)C1 (stereo not given)	inactive: -23.1%
COc1ccc(C2/C=C\CN(C(=O)c3ccccc3)[C@H](Cc3ccccc3)C(=O)N2Cc2ccc(F)cc2)cc1 (stereo not given in full)	active: -63.3%
Fc1ccc(/C=N/n2cnn(Cc3ccccc3Cl)c2=S)cc1	inconclusive: -50.4%
COc1cc(CN2CCN(CC3CC3)CC2CCO)cc(OC)c1 (stereo not given)	inactive: 28.6%
CCc1nnc(SCC(=O)Nc2ccc3c(c2)OCO3)o1	inconclusive: -57.7%
Cc1nn(-c2ccccc2)c(C)c1/C=N/n1c(-c2ccncc2)n[nH]c1=S	active: -73.7%
CCCCCCc1cc2cc(-c3nnc(-c4ccccc4O)o3)c(=O)oc2cc1O	active: -104%

SMILES	activity change, negative = inhibition
COc1ccc2c(c1)cc1n2CCN=C1N	inactive: 11.7%
CC(=O)c1ccc(OCC(C)C)c(CN2CCCCC2)c1	inconclusive: -55.6%
Cc1cccc(N(C(=O)CCC(=O)Nc2ccccn2)C(C(=O)NC(C)C)c2ccc(F)cc2)c1 (stereo not given)	inconclusive: -53.4%
Cc1cccc(NC(=S)N2CCN(S(=O)(=O)c3ccccc3)CC2)c1	inconclusive: -57.7%
O=C(/C=C\c1ccco1)Nc1cc([N+](=O)[O-])ccc1F	active: -87.2%
O=C(Nc1ccc2nc(-c3ccccc3)[nH]c2c1)c1ccco1	active: -67.3%
N#Cc1ccccc1NC(=S)NC(=O)C1CCC1	inconclusive: -46.9%
Cc1nn2c(N3CCN(c4ccccn4)CC3)cc(C(C)C)nc2c1-c1ccccc1	inconclusive: -43.1%
Cn1c(=O)c(=O)n(C)c2cc(S(=O)(=O)N3CCN(c4ccccc4)CC3)ccc21	inactive: -36.1%
S=c1[nH]nc(COc2ccccc2)n1/N=C/c1c(Cl)cccc1Cl	active: -103%
CC(C(=O)Nc1ccc([N+](=O)[O-])cc1Cl)N1CCN(S(=O)(=O)c2cccs2)CC1 (stereo not given)	inconclusive: 0%
Cc1ccc(Cl)cc1NC(=O)c1ccc(Cn2cc(Cl)cn2)cc1	inconclusive: -48.5%
COc1ccc(Cn2cc(CN3CC(N4CCSCC4)CS3(=O)=O)nn2)cc1 (stereo not given)	active: -100%
Cc1c(CCOC(=O)C2C3CC4CC(C3)CC2C4)sc[n+]1CC(=O)c1ccc(Br)cc1 (stereo not given)	active: -103%
CN1CCC(=NNc2ccc(S(=O)(=O)N3CCOCC3)cc2[N+](=O)[O-])CC1	inconclusive: -44.7%
CCOc1ccccc1OCCCC(=O)Nc1cc(S(=O)(=O)N2CCCCC2)ccc1C	inconclusive: -41.1%
CC1CCN(C(=O)Cn2c3ccccc3c3nc4n(c(=O)c32)CCCS4)CC1	active: -60.8%
CC1(C)Cc2nc3oc4c(N(CCO)Cc5ccccc5)ncnc4c3cc2CO1	inconclusive: -43.9%
Cc1cccc(N2CCN(C(=O)c3cnn4c(C(F)F)cc(-c5ccccc5)nc34)CC2)c1C	inconclusive: -47.6%

Laid out differently: results already given.
SMILES,"activity change, negative = inhibition"
O=C(OCC(=O)N1CCOCC1)c1c(Cl)ccc(Cl)c1Cl,inconclusive: -42.5%
COc1ccc(S(=O)(=O)Nc2ccc(O)c3ccccc23)cc1,active: -104%
CN(C)c1ccc(CC(=O)N2CCCC(c3cc(C(=O)Nc4ccc(F)c(Cl)c4)no3)C2)cc1 (stereo not given),inconclusive: -52.3%
Cc1cccc(NC(=S)N2CCN(S(=O)(=O)c3ccccc3)CC2)c1,inconclusive: -57.7%
